Experimental data taken from article PMC7819943, “Rice protein-binding microarrays: a tool to detect cis-acting elements near promoter regions in rice”.
Some of the results follow.

Protein sequences, listed by entry. Tags and fused reporters are not part of them.
UniProt Q0JBA9, entry or part of it: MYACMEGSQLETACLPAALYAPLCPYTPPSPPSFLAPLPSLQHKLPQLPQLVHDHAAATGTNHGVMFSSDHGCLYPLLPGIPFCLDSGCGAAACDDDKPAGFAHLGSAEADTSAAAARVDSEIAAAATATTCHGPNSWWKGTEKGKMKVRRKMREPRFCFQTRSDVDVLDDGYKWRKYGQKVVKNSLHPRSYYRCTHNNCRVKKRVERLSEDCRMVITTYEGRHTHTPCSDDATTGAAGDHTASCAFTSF

molecular target: OsWRKY34 (Oryza sativa, UniProt Q0JBA9 1-250); assay: protein-binding microarray (RPBM); PBS, 2% BSA, 51.3 ng/ul salmon testes DNA, 50 uM zinc acetate, 200 nM TF, 25 C, 1 h; high values mean tight binding; settings: protein: recombinant; tags: N-terminal polyhistidine and DsRed monomer fusion (pET32a); label: CyDye5-dUTP incorporated in the synthesized complementary strand; 3' TTTTT single-stranded linker to array surface; dsDNA, one strand shown
Outline: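 In PBS with 2% BSA, salmon testes DNA and 50 µM zinc acetate, 200 nM protein was incubated on a custom Agilent array at 25 °C for 1 h and then washed off. The array had been made double-stranded by primer extension with Cy5-dUTP and blocked with 2% BSA. The proteins were transcription factors fused N-terminally to polyhistidine and DsRed, expressed in E. coli BL21-CodonPlus and purified on Ni–NTA. The binding signal is per-feature fluorescence intensity (arbitrary units) from an Axon 4000B scanner.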

Sequence | binding signal
CATCGTCATCGCAATATCAAATCCACATCCACATCTCCATCGGAGTCACCTAGTGCAG | 8100 fluorescence intensity (a.u.)
AAAAAACCATCTATTTTTTTCTACCCATGTACATATATTTCGGAGTCACCTAGTGCAG | 8750 fluorescence intensity (a.u.)
AACCTAGAAACCTCCATATACATACACCACATCACTAAACCGGAGTCACCTAGTGCAG | 8680 fluorescence intensity (a.u.)
AATCACACCTATAAATATCCACTCCCGTAGCTATTCAGAACGGAGTCACCTAGTGCAG | 10600 fluorescence intensity (a.u.)
CTGTTTATTTTTACCATATATTCCGTTACTTGAAGATTTCCGGAGTCACCTAGTGCAG | 10900 fluorescence intensity (a.u.)
CCCGCCCAGCCCAACCACTTCACTCCTCCCACTCCAGTACCGGAGTCACCTAGTGCAG | 8440 fluorescence intensity (a.u.)
ACTGATGCCACCTTACCCATGTCCACGCCTTCCAGTGTTGCGGAGTCACCTAGTGCAG | 8700 fluorescence intensity (a.u.)
ATTGTTGGAGTGGGTGGAGTGGGGAAAACAGCTCTTGCTCCGGAGTCACCTAGTGCAG | 9300 fluorescence intensity (a.u.)
CACCCTTATACTCTGTGAACCCTTACATAATGTTCACGCCCGGAGTCACCTAGTGCAG | 10500 fluorescence intensity (a.u.)
TCCCACGATTTCCTTTCCTGCTTTTCTCATCCCTTTTGTTCGGAGTCACCTAGTGCAG | 16500 fluorescence intensity (a.u.)
TCCAGACGTGCAATGCAACACAGTTCACAGCATAGAAGCGCGGAGTCACCTAGTGCAG | 9080 fluorescence intensity (a.u.)
TCCACTAACCAACCTGACCCAAGCATCCAACTCCATCGCCCGGAGTCACCTAGTGCAG | 10100 fluorescence intensity (a.u.)
ACATCCACCTATCCTTTAGTTTCCATCTCCTTTAAATTCCCGGAGTCACCTAGTGCAG | 13000 fluorescence intensity (a.u.)
ACTAGCTGGGCCCCTTTGGGATGTCTCCTCTCTCCACTGACGGAGTCACCTAGTGCAG | 11500 fluorescence intensity (a.u.)
CACCTCGCCGGCGGCCGCACATGACCACCACCACCGCAGCCGGAGTCACCTAGTGCAG | 10500 fluorescence intensity (a.u.)
TTGCAAGCCAAACAACTGCCTCGGCACAACCAAGATTCTACGGAGTCACCTAGTGCAG | 8170 fluorescence intensity (a.u.)
ACATATGTACGGTGTGATTGTGGTGTTATCTACCAAGATTCGGAGTCACCTAGTGCAG | 8530 fluorescence intensity (a.u.)
TTTCTGTGTTCAACATTTGACCGTCCGTCTTATTTAAAAACGGAGTCACCTAGTGCAG | 8370 fluorescence intensity (a.u.)
CATTTTTTTTCTTAATCCATATTTGACTTGGATGTTGTTTCGGAGTCACCTAGTGCAG | 8390 fluorescence intensity (a.u.)
ACGTTTCTCCTGGCCAAGAAATGCCGCCATAAACAACTCTCGGAGTCACCTAGTGCAG | 8120 fluorescence intensity (a.u.)
TTTTCATGATCTTTGCTTCTTTTTTTAGATTGATCTGTCTCGGAGTCACCTAGTGCAG | 9770 fluorescence intensity (a.u.)
CTCTCTACACGGCCACCGTACCGTTCATATGCCGGTACATCGGAGTCACCTAGTGCAG | 8980 fluorescence intensity (a.u.)
CCGCGCCTCCGCCTCCTCCGCGTCCCCGCGCCTCTCCTTCCGGAGTCACCTAGTGCAG | 8150 fluorescence intensity (a.u.)
CTGTATCTAATTCGGTTTGTTGTTCACCGTCCATTCCATTCGGAGTCACCTAGTGCAG | 9690 fluorescence intensity (a.u.)
CGGTTCTGAATTTCTGATTTCTGCACTACTCCGTGTTCTTCGGAGTCACCTAGTGCAG | 8710 fluorescence intensity (a.u.)
ATCGCGCGTCGTCTCCACCTTTCTTGCTTGTGCCACCAAGCGGAGTCACCTAGTGCAG | 8980 fluorescence intensity (a.u.)
TGTTCATTCCAGTTCCACTACTCTACTCTTGATTTCTCACCGGAGTCACCTAGTGCAG | 9420 fluorescence intensity (a.u.)

Sequence | binding signal
ACTGCCTCCTTTTATTGAAGCTGCTATTTCTGTGAGTATTCGGAGTCACCTAGTGCAG | 9930 fluorescence intensity (a.u.)
CCCACCACCTCGTCCTCACCGTCATCGCTGGCGCTGCCTGCGGAGTCACCTAGTGCAG | 8690 fluorescence intensity (a.u.)
GTACACATGCTCACCAGAATTATTGTTTTGGCAAGTTGCACGGAGTCACCTAGTGCAG | 8280 fluorescence intensity (a.u.)
GCTTAACCTATAGCAACCTGATTGATTTACAAGTTTTTTTCGGAGTCACCTAGTGCAG | 8790 fluorescence intensity (a.u.)
CCTTCGTTCTCACACGCATGCATATCATCACTATATATGCCGGAGTCACCTAGTGCAG | 11900 fluorescence intensity (a.u.)
GCCGTTGACTTTTTTAAACATGTTTGACCGTTCGTCTTATCGGAGTCACCTAGTGCAG | 45200 fluorescence intensity (a.u.)
ATTGTCTTCTCCATGCATCCTACCAGTTTGTGCTTATTTACGGAGTCACCTAGTGCAG | 9490 fluorescence intensity (a.u.)
TCCATTTCTCACTATCCTCTTGACCTCCATTTTTTTTTCCCGGAGTCACCTAGTGCAG | 12300 fluorescence intensity (a.u.)
CACAACCCTTCACCATTCACCCGTACCTATTTTCTTAATACGGAGTCACCTAGTGCAG | 9690 fluorescence intensity (a.u.)
GCATTCCTATTATATTCCTGTATTTTTTACACATGCCCTTCGGAGTCACCTAGTGCAG | 9180 fluorescence intensity (a.u.)
TCTCTCTGTCTCCTATCCCTGTATACTATTTTATTCTCCACGGAGTCACCTAGTGCAG | 10000 fluorescence intensity (a.u.)
GGCCGGCGGGGAGCACAAAAGTTACAGTCTCTATATTTATCGGAGTCACCTAGTGCAG | 8540 fluorescence intensity (a.u.)
GACTCCTTCCGTATTCTCCTATGGCTTCCTTGTATATCTTCGGAGTCACCTAGTGCAG | 15600 fluorescence intensity (a.u.)
GGTGTGGGGATTCGGCTGGCCGTCGCCTTCGTCTTCGTCTCGGAGTCACCTAGTGCAG | 14500 fluorescence intensity (a.u.)
TCCTATGTATTATCACCCTAAAATCGTATATCCTACTTATCGGAGTCACCTAGTGCAG | 10700 fluorescence intensity (a.u.)
CCCCGATCCACGCCGCCGCAGCCGCATCACCGTCTATTTCCGGAGTCACCTAGTGCAG | 9580 fluorescence intensity (a.u.)
TTGAAGCCCACCACACCACCTCACCTCGCCGCCGCCGCCACGGAGTCACCTAGTGCAG | 9350 fluorescence intensity (a.u.)
ATATGCCGCGTCTTCCTTTTTGTTAACTCAAGACTCGTGGCGGAGTCACCTAGTGCAG | 12000 fluorescence intensity (a.u.)
TAATGCTTTGTGTCGATTCACATGTTTTATTAATTATTAACGGAGTCACCTAGTGCAG | 9180 fluorescence intensity (a.u.)
TCTTGTTACAATCTGCTTTTTGGTTTATTTCTGTTTTCAACGGAGTCACCTAGTGCAG | 8190 fluorescence intensity (a.u.)
TCCTACCTCCAGGATCATGGCCTACCTGGCTTTCAGCTAACGGAGTCACCTAGTGCAG | 8340 fluorescence intensity (a.u.)
CGGAACCACTTTTTTTTTTTGTCCTTTTTCTTTTACGTAACGGAGTCACCTAGTGCAG | 8750 fluorescence intensity (a.u.)
TCCGCTTCTTTGCCCGCCGCTGCGCTCGCACTCCACTGCTCGGAGTCACCTAGTGCAG | 11300 fluorescence intensity (a.u.)
CCCTTGCAAGAGCTCTCACACCCTTGTGCATTTAGTTTATCGGAGTCACCTAGTGCAG | 10300 fluorescence intensity (a.u.)
GCGCGCCACGCCACGCCACGCGCCCACGCCTCGCCTCGCCCGGAGTCACCTAGTGCAG | 9630 fluorescence intensity (a.u.)
GCCTCAGTTCACCGCCCGGCGCCGCCGCATCCATCTGCATCGGAGTCACCTAGTGCAG | 9710 fluorescence intensity (a.u.)
TTAATTACTCTCTCCGTTTCTAAATATTTGACACCGTTGACGGAGTCACCTAGTGCAG | 8220 fluorescence intensity (a.u.)

Reprinted at random: 4 records from the list
Sequence | binding signal
GCCTCAGTTCACCGCCCGGCGCCGCCGCATCCATCTGCATCGGAGTCACCTAGTGCAG | 9710 fluorescence intensity (a.u.)
GCTTAACCTATAGCAACCTGATTGATTTACAAGTTTTTTTCGGAGTCACCTAGTGCAG | 8790 fluorescence intensity (a.u.)
CCCTTGCAAGAGCTCTCACACCCTTGTGCATTTAGTTTATCGGAGTCACCTAGTGCAG | 10300 fluorescence intensity (a.u.)
ATTGTCTTCTCCATGCATCCTACCAGTTTGTGCTTATTTACGGAGTCACCTAGTGCAG | 9490 fluorescence intensity (a.u.)
